Source: publication PMC9169624, “Human HELB is a processive motor protein that catalyzes RPA clearance from single-stranded DNA” (Proceedings of the National Academy of Sciences of the …, 2022)

Chains of the proteins cited; added tags and fusions are not shown. A change or cut given only in a name is not applied to a line headed by its entry. Chains listed by the source or under a name are the forms on record and can include a tag or linker.
UniProt Q8NG08: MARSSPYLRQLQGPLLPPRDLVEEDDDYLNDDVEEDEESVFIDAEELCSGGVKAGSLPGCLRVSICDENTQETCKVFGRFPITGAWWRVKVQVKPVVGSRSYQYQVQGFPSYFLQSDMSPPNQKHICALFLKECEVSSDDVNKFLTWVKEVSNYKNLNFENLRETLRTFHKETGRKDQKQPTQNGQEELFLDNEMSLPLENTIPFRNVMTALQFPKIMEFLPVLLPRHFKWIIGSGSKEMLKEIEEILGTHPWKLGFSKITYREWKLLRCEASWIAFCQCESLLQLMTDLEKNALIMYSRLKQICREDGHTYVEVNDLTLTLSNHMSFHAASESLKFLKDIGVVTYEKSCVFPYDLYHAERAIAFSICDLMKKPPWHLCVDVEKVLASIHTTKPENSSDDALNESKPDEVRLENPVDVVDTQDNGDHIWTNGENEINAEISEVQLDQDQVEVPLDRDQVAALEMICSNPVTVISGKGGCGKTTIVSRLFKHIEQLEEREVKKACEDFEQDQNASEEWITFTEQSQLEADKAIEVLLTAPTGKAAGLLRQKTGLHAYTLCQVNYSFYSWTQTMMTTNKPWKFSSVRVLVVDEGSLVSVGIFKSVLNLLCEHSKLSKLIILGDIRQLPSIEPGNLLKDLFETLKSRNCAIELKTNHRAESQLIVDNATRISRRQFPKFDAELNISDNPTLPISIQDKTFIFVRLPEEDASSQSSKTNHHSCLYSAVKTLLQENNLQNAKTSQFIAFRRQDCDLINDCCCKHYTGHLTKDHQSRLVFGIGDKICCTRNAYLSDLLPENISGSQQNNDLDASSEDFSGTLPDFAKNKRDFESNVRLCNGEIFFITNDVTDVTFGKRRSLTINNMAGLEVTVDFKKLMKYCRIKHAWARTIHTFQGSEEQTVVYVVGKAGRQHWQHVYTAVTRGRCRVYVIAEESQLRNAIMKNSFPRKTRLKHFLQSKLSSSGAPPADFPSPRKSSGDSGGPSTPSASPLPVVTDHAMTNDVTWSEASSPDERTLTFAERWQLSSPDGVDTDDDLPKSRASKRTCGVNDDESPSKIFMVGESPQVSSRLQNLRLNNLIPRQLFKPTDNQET
Yeast RPA (yRPA) (Saccharomyces cerevisiae), one chain, as listed by the source, chain 1 of 3: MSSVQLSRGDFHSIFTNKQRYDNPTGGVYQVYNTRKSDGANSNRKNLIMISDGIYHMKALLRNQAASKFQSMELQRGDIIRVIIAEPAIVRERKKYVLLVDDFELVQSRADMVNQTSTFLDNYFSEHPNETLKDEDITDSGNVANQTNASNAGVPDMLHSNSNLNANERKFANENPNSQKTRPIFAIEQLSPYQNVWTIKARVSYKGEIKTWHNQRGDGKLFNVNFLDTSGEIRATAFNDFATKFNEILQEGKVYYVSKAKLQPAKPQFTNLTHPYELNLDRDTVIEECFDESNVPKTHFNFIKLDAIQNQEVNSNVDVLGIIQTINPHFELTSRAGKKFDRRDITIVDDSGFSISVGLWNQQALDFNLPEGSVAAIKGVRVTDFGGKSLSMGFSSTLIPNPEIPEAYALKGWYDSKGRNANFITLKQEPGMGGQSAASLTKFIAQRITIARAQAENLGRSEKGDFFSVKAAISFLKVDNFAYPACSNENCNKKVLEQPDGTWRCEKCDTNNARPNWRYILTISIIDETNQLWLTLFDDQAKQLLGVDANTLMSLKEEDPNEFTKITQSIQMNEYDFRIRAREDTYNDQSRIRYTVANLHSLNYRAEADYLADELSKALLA
HELB (DNA helicase B) + Yeast RPA (yRPA), one chain, as listed by the source, chain 1 of 4: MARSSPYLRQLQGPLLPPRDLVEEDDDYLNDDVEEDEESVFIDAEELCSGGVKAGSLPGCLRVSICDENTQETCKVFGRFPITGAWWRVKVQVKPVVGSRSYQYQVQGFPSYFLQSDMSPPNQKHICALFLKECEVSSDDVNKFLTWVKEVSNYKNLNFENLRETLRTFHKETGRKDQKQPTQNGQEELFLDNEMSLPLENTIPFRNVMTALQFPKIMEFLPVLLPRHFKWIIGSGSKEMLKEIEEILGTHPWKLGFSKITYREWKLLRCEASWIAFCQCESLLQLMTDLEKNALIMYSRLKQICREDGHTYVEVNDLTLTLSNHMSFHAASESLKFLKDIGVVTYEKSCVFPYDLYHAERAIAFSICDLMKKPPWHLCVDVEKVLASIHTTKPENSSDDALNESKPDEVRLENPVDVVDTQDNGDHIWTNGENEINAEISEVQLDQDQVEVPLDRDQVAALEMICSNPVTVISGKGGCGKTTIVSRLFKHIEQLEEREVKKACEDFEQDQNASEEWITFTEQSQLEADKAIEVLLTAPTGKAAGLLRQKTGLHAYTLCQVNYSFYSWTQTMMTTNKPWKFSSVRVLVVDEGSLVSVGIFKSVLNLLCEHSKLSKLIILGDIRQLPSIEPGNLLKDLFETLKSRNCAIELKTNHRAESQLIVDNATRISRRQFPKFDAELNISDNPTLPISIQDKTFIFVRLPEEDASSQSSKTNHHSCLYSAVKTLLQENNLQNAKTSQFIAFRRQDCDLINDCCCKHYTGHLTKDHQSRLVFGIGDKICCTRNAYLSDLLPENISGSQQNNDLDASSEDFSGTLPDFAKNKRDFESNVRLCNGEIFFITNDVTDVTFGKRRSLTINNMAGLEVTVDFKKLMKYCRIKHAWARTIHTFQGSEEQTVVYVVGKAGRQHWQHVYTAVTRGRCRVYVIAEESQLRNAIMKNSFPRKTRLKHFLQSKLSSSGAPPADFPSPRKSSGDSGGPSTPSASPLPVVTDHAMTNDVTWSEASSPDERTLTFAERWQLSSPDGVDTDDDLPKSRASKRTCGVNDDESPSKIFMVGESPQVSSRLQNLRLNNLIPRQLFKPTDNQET
Yeast RPA (yRPA) (Saccharomyces cerevisiae), one chain, as listed by the source, chain 2 of 3: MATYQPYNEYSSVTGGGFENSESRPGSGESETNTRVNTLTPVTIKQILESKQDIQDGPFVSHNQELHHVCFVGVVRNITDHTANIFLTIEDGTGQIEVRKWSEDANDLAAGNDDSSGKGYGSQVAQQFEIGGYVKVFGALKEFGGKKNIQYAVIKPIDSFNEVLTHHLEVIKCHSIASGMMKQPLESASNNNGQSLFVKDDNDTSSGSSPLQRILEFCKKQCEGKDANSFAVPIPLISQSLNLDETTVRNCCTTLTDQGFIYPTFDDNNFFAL
Yeast RPA (yRPA) (Saccharomyces cerevisiae), one chain, as listed by the source, chain 3 of 3: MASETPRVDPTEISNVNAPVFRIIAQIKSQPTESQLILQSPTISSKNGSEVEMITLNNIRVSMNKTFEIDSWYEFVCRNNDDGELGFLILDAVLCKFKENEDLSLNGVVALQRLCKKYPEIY

Columns and labels:
[1] = system: Yeast RPA (yRPA) (Saccharomyces cerevisiae); experiment: EMSA; conditions: yeast RPA-coated ssDNA; EMSA: 2.5 nM DNA (5 nM in Fig. S1F); recombinant protein; label: 5'-Cy5; single-stranded DNA
[2] = system: HELB (DNA helicase B) + Yeast RPA (yRPA); experiment: EMSA; conditions: no ternary complex, yRPA itself binds the DNA; EMSA: 2.5 nM DNA (5 nM in Fig. S1F); recombinant protein; label: 5'-Cy5; single-stranded DNA
[3] = molecular target: HELB (DNA helicase B) (Homo sapiens) (UniProt Q8NG08); experiment: PIFE fluorescence; conditions: Kd value only in figure; PIFE: 2 nM DNA for Kd; pH and temperature not in the supplied material; optical tweezers at room temperature; recombinant protein; residues 1-1087; label: 3'-Cy3; single-stranded DNA

Row | Sequence | binding result [1] | binding result [2] | binding result [3]
1 | GCTTGCTAGGACGGATCGCTCGAGG [EMSA 25mer] | binds | no binding | –
2 | TTTTTTTTTTTTTTTTTTTT [poly(dT) 20mer] | – | – | binds more weakly
3 | TTTTTTTTTTTTTTT [poly(dT) 15mer] | – | – | binds more weakly

Construct, isoform or probe ends are uncertain for at least one entry. For some of these results: No signal at the amounts used counts as a negative. For some of these results: Weaker means in comparison with the reference protein, sequence or condition of that experiment. For some of these results: At least one verdict was read from the data and is not stated in words by the source.
